The record followed here is article PMC5802629.

Protein sequences, listed by entry. Tags and fused reporters are not part of them.
UniProt P21554: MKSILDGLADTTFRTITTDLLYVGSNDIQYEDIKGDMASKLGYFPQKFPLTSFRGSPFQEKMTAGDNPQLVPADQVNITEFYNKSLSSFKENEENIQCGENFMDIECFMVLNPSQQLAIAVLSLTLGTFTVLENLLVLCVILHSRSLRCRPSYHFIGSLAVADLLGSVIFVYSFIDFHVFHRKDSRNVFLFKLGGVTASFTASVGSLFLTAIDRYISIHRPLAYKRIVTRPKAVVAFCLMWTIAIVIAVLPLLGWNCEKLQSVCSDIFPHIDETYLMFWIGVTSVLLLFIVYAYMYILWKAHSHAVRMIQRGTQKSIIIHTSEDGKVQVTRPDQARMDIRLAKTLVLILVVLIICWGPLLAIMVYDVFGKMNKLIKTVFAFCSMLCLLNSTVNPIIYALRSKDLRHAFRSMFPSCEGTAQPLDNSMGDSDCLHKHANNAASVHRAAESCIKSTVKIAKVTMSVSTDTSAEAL
UniProt P35372: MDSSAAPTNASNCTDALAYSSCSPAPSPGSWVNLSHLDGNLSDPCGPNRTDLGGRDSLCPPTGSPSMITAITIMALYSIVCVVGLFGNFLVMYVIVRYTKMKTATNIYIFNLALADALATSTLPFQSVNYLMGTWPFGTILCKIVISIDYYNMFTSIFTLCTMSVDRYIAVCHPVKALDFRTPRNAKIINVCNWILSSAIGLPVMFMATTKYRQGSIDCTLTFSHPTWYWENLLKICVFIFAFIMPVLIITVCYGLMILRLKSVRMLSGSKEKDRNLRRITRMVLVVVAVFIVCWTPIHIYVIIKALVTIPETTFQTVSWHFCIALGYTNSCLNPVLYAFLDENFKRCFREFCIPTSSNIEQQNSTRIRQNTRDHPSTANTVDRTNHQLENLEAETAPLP
UniProt P49773: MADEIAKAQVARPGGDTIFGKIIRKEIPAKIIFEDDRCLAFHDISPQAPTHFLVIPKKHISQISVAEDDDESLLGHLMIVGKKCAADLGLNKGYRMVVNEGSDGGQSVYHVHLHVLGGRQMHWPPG

These are yes or no findings as the source states them, for the method shown. In cells and extracts the contact can be indirect. Some binding calls cover weakened binding; strength is not graded here.

The target in experiment [1] is cannabinoid type 1 receptor (human (endogenous in postmortem prefrontal cortex)) (UniProt P21554). In words: co-IP; solubilized synaptosomal membranes of postmortem human prefrontal cortex (schizophrenic, depressive and control subjects); the GPCR immunoprecipitated with biotinylated IgG to an extracellular sequence, captured by agarose streptavidin; co-precipitated HINT1 and NR1 C1 by western blot. In general terms: A western blot detects proteins with antibodies after separation by electrophoresis.

Experiment [2] concerns the target mu-opioid receptor (human (endogenous in postmortem prefrontal cortex)) (UniProt P35372). Described as above.

As to “histidine triad nucleotide-binding protein 1 (from UniProt P49773 1-126)”, the binding entry in experiment [1] and in experiment [2] was “binds” in each case.
